# In the supplement of paper PMC8728848:
# Some of the results follow.
# B1: CBP21 (Serratia marcescens), O83009 (protein)
# chain: MNKTSRTLLSLGLLSAAMFGVSQQANAHGYVESPASRAYQCKLQLNTQCGSVQYEPQSVEGLKGFPQAGPADGHIASADKSTFFELDQQTPTRWNKLNLKTGPNSFTWKLTARHSTTSWRYFITKPNWDASQPLTRASFDLTPFCQFNDGGAIPAAQVTHQCNIPADRSGSHVILAVWDIADTANAFYQAIDVNLSK
# Columns and labels:
# Assay in all cases: glycan array binding signal (z-score within array); higher = stronger binding
# Conditions in all cases: glycan notation: IUPAC condensed, linker removed
# [1] = molecular target: Gal(b1-4)GlcNAc(b1-2)[Gal(b1-4)GlcNAc(b1-6)]Man(a1-6)[Gal(b1-4)GlcNAc(b1-2)Man(a1-3)]Man(b1-4)GlcNAc(b1-4)[Fuc(a1-6)]GlcNAc
# How it was run: (§1)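 Glycan array data were curated from 3228 arrays in the Consortium for Functional Glycomics database and kept only where the protein sequence was available. Glycan names were converted to IUPAC-condensed notation, and columns mapping to the same glycan were averaged. The binding signal is a within-array Z-score, averaged across arrays of the same protein sequence at different concentrations or buffers and across linkers. Negative Z-scores can be read as non-binding.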
# [2] = molecular target: Gal(b1-4)GlcNAc(b1-2)[Gal(b1-4)GlcNAc(b1-6)]Man(a1-6)[GlcNAc(b1-4)][Gal(b1-4)GlcNAc(b1-2)Man(a1-3)]Man(b1-4)GlcNAc(b1-4)GlcNAc
# How it was run: as §1
# [3] = molecular target: Gal(b1-4)GlcNAc(b1-2)[Gal(b1-4)GlcNAc(b1-6)]Man(a1-6)[GlcNAc(b1-4)][Gal(b1-4)GlcNAc(b1-2)[Gal(b1-4)GlcNAc(b1-4)]Man(a1-3)]Man(b1-4)GlcNAc(b1-4)[Fuc(a1-6)]GlcNAc
# How it was run: as §1
# [4] = molecular target: Gal(b1-4)GlcNAc(b1-3)Gal(b1-3)GalNAc
# How it was run: as §1
# [5] = molecular target: Gal(b1-4)GlcNAc(b1-3)Gal(b1-3)GlcNAc
# How it was run: as §1
# [6] = molecular target: Gal(b1-4)GlcNAc(b1-3)Gal(b1-4)Glc
# How it was run: as §1
# [7] = molecular target: Gal(b1-4)GlcNAc(b1-3)Gal(b1-4)GlcNAc
# How it was run: as §1
# [8] = molecular target: Gal(b1-4)GlcNAc(b1-3)Gal(b1-4)GlcNAc(b1-2)Man(a1-3)[Gal(b1-4)GlcNAc(b1-3)Gal(b1-4)GlcNAc(b1-2)Man(a1-6)]Man(b1-4)GlcNAc(b1-4)GlcNAc
# How it was run: as §1
# [9] = molecular target: Gal(b1-4)GlcNAc(b1-3)Gal(b1-4)GlcNAc(b1-2)Man(a1-3)[Gal(b1-4)GlcNAc(b1-3)Gal(b1-4)GlcNAc(b1-2)Man(a1-6)]Man(b1-4)GlcNAc(b1-4)[Fuc(a1-6)]GlcNAc
# How it was run: as §1
# [10] = molecular target: Gal(b1-4)GlcNAc(b1-3)Gal(b1-4)GlcNAc(b1-2)[Gal(b1-4)GlcNAc(b1-3)Gal(b1-4)GlcNAc(b1-6)]Man(a1-6)[Gal(b1-4)GlcNAc(b1-3)Gal(b1-4)GlcNAc(b1-2)Man(a1-3)]Man(b1-4)GlcNAc(b1-4)GlcNAc
# How it was run: as §1
# [11] = molecular target: Gal(b1-4)GlcNAc(b1-3)Gal(b1-4)GlcNAc(b1-2)[Gal(b1-4)GlcNAc(b1-3)Gal(b1-4)GlcNAc(b1-6)]Man(a1-6)[Gal(b1-4)GlcNAc(b1-3)Gal(b1-4)GlcNAc(b1-2)Man(a1-3)]Man(b1-4)GlcNAc(b1-4)[Fuc(a1-6)]GlcNAc
# How it was run: as §1
# [12] = molecular target: Gal(b1-4)GlcNAc(b1-3)Gal(b1-4)GlcNAc(b1-3)Gal(b1-4)GlcNAc
# How it was run: as §1
# [13] = molecular target: Gal(b1-4)GlcNAc(b1-3)Gal(b1-4)GlcNAc(b1-3)Gal(b1-4)GlcNAc(b1-2)Man(a1-3)[Gal(b1-4)GlcNAc(b1-3)Gal(b1-4)GlcNAc(b1-3)Gal(b1-4)GlcNAc(b1-2)Man(a1-6)]Man(b1-4)GlcNAc(b1-4)GlcNAc
# How it was run: as §1
# [14] = molecular target: Gal(b1-4)GlcNAc(b1-3)Gal(b1-4)GlcNAc(b1-3)Gal(b1-4)GlcNAc(b1-2)Man(a1-3)[Gal(b1-4)GlcNAc(b1-3)Gal(b1-4)GlcNAc(b1-3)Gal(b1-4)GlcNAc(b1-2)Man(a1-6)]Man(b1-4)GlcNAc(b1-4)[Fuc(a1-6)]GlcNAc
# How it was run: as §1
# [15] = molecular target: Gal(b1-4)GlcNAc(b1-3)Gal(b1-4)GlcNAc(b1-3)Gal(b1-4)GlcNAc(b1-2)[Gal(b1-4)GlcNAc(b1-3)Gal(b1-4)GlcNAc(b1-3)Gal(b1-4)GlcNAc(b1-6)]Man(a1-6)[Gal(b1-4)GlcNAc(b1-3)Gal(b1-4)GlcNAc(b1-3)Gal(b1-4)GlcNAc(b1-2)Man(a1-3)]Man(b1-4)GlcNAc(b1-4)[Fuc(a1-6)]GlcNAc
# How it was run: as §1
# [16] = molecular target: Gal(b1-4)GlcNAc(b1-3)Gal(b1-4)GlcNAc(b1-3)Gal(b1-4)GlcNAc(b1-3)Gal(b1-4)GlcNAc(b1-2)Man(a1-3)[Gal(b1-4)GlcNAc(b1-3)Gal(b1-4)GlcNAc(b1-3)Gal(b1-4)GlcNAc(b1-3)Gal(b1-4)GlcNAc(b1-2)Man(a1-6)]Man(b1-4)GlcNAc(b1-4)GlcNAc
# How it was run: as §1
# [17] = molecular target: Gal(b1-4)GlcNAc(b1-3)Gal(b1-4)GlcNAc(b1-3)Gal(b1-4)GlcNAc(b1-3)Gal(b1-4)GlcNAc(b1-2)Man(a1-3)[Gal(b1-4)GlcNAc(b1-3)Gal(b1-4)GlcNAc(b1-3)Gal(b1-4)GlcNAc(b1-3)Gal(b1-4)GlcNAc(b1-2)Man(a1-6)]Man(b1-4)GlcNAc(b1-4)[Fuc(a1-6)]GlcNAc
# How it was run: as §1
# [18] = molecular target: Gal(b1-4)GlcNAc(b1-3)Gal(b1-4)GlcNAc(b1-3)Gal(b1-4)GlcNAc(b1-3)Gal(b1-4)GlcNAc(b1-2)[Gal(b1-4)GlcNAc(b1-3)Gal(b1-4)GlcNAc(b1-3)Gal(b1-4)GlcNAc(b1-3)Gal(b1-4)GlcNAc(b1-6)]Man(a1-6)[Gal(b1-4)GlcNAc(b1-3)Gal(b1-4)GlcNAc(b1-3)Gal(b1-4)GlcNAc(b1-3)Gal(b1-4)GlcNAc(b1-2)Man(a1-3)]Man(b1-4)GlcNAc(b1-4)[Fuc(a1-6)]GlcNAc
# How it was run: as §1
# [19] = molecular target: Gal(b1-4)GlcNAc(b1-3)Gal(b1-4)GlcNAc(b1-3)Gal(b1-4)GlcNAc(b1-3)Gal(b1-4)GlcNAc(b1-3)Gal(b1-4)GlcNAc(b1-2)Man(a1-3)[Gal(b1-4)GlcNAc(b1-3)Gal(b1-4)GlcNAc(b1-3)Gal(b1-4)GlcNAc(b1-3)Gal(b1-4)GlcNAc(b1-3)Gal(b1-4)GlcNAc(b1-2)Man(a1-6)]Man(b1-4)GlcNAc(b1-4)GlcNAc
# How it was run: as §1
# [20] = molecular target: Gal(b1-4)GlcNAc(b1-3)Gal(b1-4)GlcNAc(b1-3)Gal(b1-4)GlcNAc(b1-3)Gal(b1-4)GlcNAc(b1-3)Gal(b1-4)GlcNAc(b1-2)Man(a1-3)[Gal(b1-4)GlcNAc(b1-3)Gal(b1-4)GlcNAc(b1-3)Gal(b1-4)GlcNAc(b1-3)Gal(b1-4)GlcNAc(b1-3)Gal(b1-4)GlcNAc(b1-2)Man(a1-6)]Man(b1-4)GlcNAc(b1-4)[Fuc(a1-6)]GlcNAc
# How it was run: as §1
# [21] = molecular target: Gal(b1-4)GlcNAc(b1-3)Gal(b1-4)GlcNAc(b1-3)Gal(b1-4)GlcNAc(b1-3)Gal(b1-4)GlcNAc(b1-3)Gal(b1-4)GlcNAc(b1-2)[Gal(b1-4)GlcNAc(b1-3)Gal(b1-4)GlcNAc(b1-3)Gal(b1-4)GlcNAc(b1-3)Gal(b1-4)GlcNAc(b1-3)Gal(b1-4)GlcNAc(b1-6)]Man(a1-6)[Gal(b1-4)GlcNAc(b1-3)Gal(b1-4)GlcNAc(b1-3)Gal(b1-4)GlcNAc(b1-3)Gal(b1-4)GlcNAc(b1-3)Gal(b1-4)GlcNAc(b1-2)Man(a1-3)]Man(b1-4)GlcNAc(b1-4)[Fuc(a1-6)]GlcNAc
# How it was run: as §1
# [22] = molecular target: Gal(b1-4)GlcNAc(b1-3)Gal(b1-4)GlcNAc(b1-3)Gal(b1-4)GlcNAc(b1-3)Gal(b1-4)GlcNAc(b1-3)Gal(b1-4)GlcNAc(b1-3)Gal(b1-4)GlcNAc(b1-2)Man(a1-3)[Gal(b1-4)GlcNAc(b1-3)Gal(b1-4)GlcNAc(b1-3)Gal(b1-4)GlcNAc(b1-3)Gal(b1-4)GlcNAc(b1-3)Gal(b1-4)GlcNAc(b1-3)Gal(b1-4)GlcNAc(b1-2)Man(a1-6)]Man(b1-4)GlcNAc(b1-4)GlcNAc
# How it was run: as §1
# [23] = molecular target: Gal(b1-4)GlcNAc(b1-3)Gal(b1-4)GlcNAc(b1-3)GalNAc
# How it was run: as §1
binder,measurement,setting,value
B1,glycan array binding signal (z-score),[1],0.885
same,glycan array binding signal (z-score),[2],-1.1
same,glycan array binding signal (z-score),[3],-1.38
same,glycan array binding signal (z-score),[4],1.43
same,glycan array binding signal (z-score),[5],0.227
same,glycan array binding signal (z-score),[6],-0.209
same,glycan array binding signal (z-score),[7],0.198
same,glycan array binding signal (z-score),[8],-0.662
same,glycan array binding signal (z-score),[9],0.093
same,glycan array binding signal (z-score),[10],1.3
same,glycan array binding signal (z-score),[11],1.11
same,glycan array binding signal (z-score),[12],0
same,glycan array binding signal (z-score),[13],0.867
same,glycan array binding signal (z-score),[14],2.68
same,glycan array binding signal (z-score),[15],0.051
same,glycan array binding signal (z-score),[16],0.562
same,glycan array binding signal (z-score),[17],-0.333
same,glycan array binding signal (z-score),[18],0.53
same,glycan array binding signal (z-score),[19],1.31
same,glycan array binding signal (z-score),[20],1.64
same,glycan array binding signal (z-score),[21],2.67
same,glycan array binding signal (z-score),[22],1.21
same,glycan array binding signal (z-score),[23],-0.293

# Rewritten tab-delimited: part of the list above
binder	measurement	setting	value
B1	glycan array binding signal (z-score)	[8]	-0.662
same	glycan array binding signal (z-score)	[9]	0.093
